{
  "source": "patent US5360796A",
  "about": "“Imidazo[1,2-a]pyridinylalkyl phosphonic acid compounds for treatment of neurotoxic injury” (G. D. Searle & Co., priority 1991, dated 1994)",
  "note": "Counter-ions that a name gives are not always drawn. At least one read-out could not be matched to a standard name with certainty.",
  "data": [
    {"molecular_target": "KA", "assay": "[3H]kainate (KA) binding assay", "set-up": "species or system rat", "details": "0.5 nM [3H]kainate, synaptic plasma membranes, pH 7.4, 0-4° C., 60 min", "units": {"NMDA Receptor Binding Data, Ki IC50 Binding KA": "µM"}, "values": [
      {"smiles": "O=C(O)c1cn2ccc(CP(=O)(O)O)cc2n1", "note": "[Example 18, 7-(phosphonomethyl)imidazo[1,2-a]pyridine-2-carboxylic acid]", "NMDA Receptor Binding Data, Ki IC50 Binding KA": "> 300"},
      {"smiles": "O=C(O)c1cn2c(CP(=O)(O)O)c(Cl)ccc2n1", "note": "[Example 30, 6-chloro-5-(phosphonomethyl)imidazo[1,2-a]pyridine-2-carboxylic acid]", "NMDA Receptor Binding Data, Ki IC50 Binding KA": "> 300"},
      {"smiles": "O=C(O)c1cn2cccc(CP(=O)(O)O)c2n1", "note": "[Example 23, 8-(phosphonomethyl)imidazo[1,2-a]pyridine-2-carboxylic acid]", "NMDA Receptor Binding Data, Ki IC50 Binding KA": "> 300"},
      {"smiles": "O=C(O)c1cn2cc(CP(=O)(O)O)ccc2n1", "note": "[Example 13, 6-(phosphonomethyl)imidazo[1,2-a]pyridine-2-carboxylic acid]", "NMDA Receptor Binding Data, Ki IC50 Binding KA": "> 300"},
      {"smiles": "O=C(O)c1cn2c(C(O)P(=O)(O)O)cccc2n1", "note": "(centres unmarked) [Example 57, 5-(hydroxyphosphonomethyl)imidazo[1,2-a]pyridine-2-carboxylic acid, monohydrochloride]", "NMDA Receptor Binding Data, Ki IC50 Binding KA": 89}
    ]}
  ]
}
